Out of some 360,000 compounds screened, about 7,500 (2.1%) were called active. The inconclusive results got no clear call from the source; some entries with a clear call stand among them for comparison. The call rests on the fitted dose curve; in most records, active means well fitted inhibition curve with a large enough effect; inconclusive means small, poorly fitted or top-dose-only effect, or effect the other way; inactive means flat fitted curve, though single readings scatter. Where the call is inconclusive, the potency comes from a doubtful curve fit.
assay: Nrf2 qHTS screen for inhibitors; conditions: A549 ARE-Fluc reporter, luciferase luminescence, 18-24 h; series mostly up to 46 µM; further: nearly all actives have a fitted effect of over 60% in size
Summary of the method: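 Quantitative HTS in A549 cells stably bearing an antioxidant response element-firefly luciferase construct. Inhibition of Nrf2-driven transcription was scored by luminescence after 18-24 h of compound exposure at 37 °C.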
Potency means the concentration at half of the fitted maximal effect.

SMILES	Potency
CCOC(=O)c1ccc(NC(=O)Nc2c[nH]c(=O)[nH]c2=O)cc1	inconclusive: 20.6 µM [activator, single point]
Cc1ccc(OCC(=O)N/N=C/C=C/c2ccco2)c(Br)c1	inactive
Cc1cc(C)nc(NC(=O)Nc2ccc(F)cc2F)n1	inconclusive: 1.84 µM [activator, partial curve, poor fit]
C=CCn1c(=NC(=O)c2sc3ccccc3c2Cl)sc2cc(S(N)(=O)=O)ccc21	inactive
COc1ccc(/C=C(/C(=O)c2ccc(Cl)cc2Cl)n2cncn2)cc1	inactive
O=C1CCc2cc(NS(=O)(=O)c3ccc(F)cc3)cc3c2N1CC3	inconclusive: 10.3 µM [falling, partial curve, poor fit]
CC(C)C(=O)N1CCN(c2ccccc2NC(=S)NC(=O)Cc2ccccc2)CC1	inconclusive: 25.9 µM [falling, single point]
CCc1ccc(NC(=O)c2cnc3n(c2=O)CCS3)cc1	inconclusive: 14.6 µM [activator, partial curve]
Oc1ccc(/C=N/NC(=S)Nc2cccnc2)c(O)c1	inconclusive: 29.1 µM [falling, single point]
CCOc1ccc(/C=C(\C#N)c2nc3ccccc3c(=O)[nH]2)cc1OC	inconclusive: 14.6 µM [falling, single point]
CCOc1ccc(-c2nonc2NC(=O)c2oc3ccc(Br)cc3c2C)cc1	inconclusive: 18.4 µM [falling, single point]
CC(C)CCN1C(=O)c2ccc(C(=O)NCc3ccccn3)cc2C1=O	inactive
CCOC(=O)N1CCN(C(=O)CS(=O)(=O)c2cn(Cc3ccc(Cl)cc3)c3ccccc23)CC1	inconclusive: 29.1 µM [falling, single point]
O=C(CSc1nnc(-c2ccccc2)c(-c2ccccc2)n1)NC1CCCCC1	inconclusive: 25.9 µM [falling, single point]
CC(C)c1ccc(/C=C/c2ccc(=O)n(C)n2)cc1	inconclusive: 25.9 µM [activator, single point]
CCc1cc(-c2n[nH]c(=S)n2-c2cccc(C)c2)cs1	inactive
CCCCCn1c(SCc2cccc(C)c2)nc2c1c(=O)[nH]c(=O)n2C	inconclusive: 29.1 µM [falling, single point]
CCOCCOC(=O)c1[nH]c2c(c1C)C(=O)CC(c1cc(OC)c(OC)c(OC)c1)C2 (centres undefined)	active: 23.1 µM
COc1ccc(-n2cnc3c(c2=N)C(c2cccc(OC)c2)c2c(ccc4ccccc24)O3)cc1 (centres undefined)	inconclusive: 1.3 µM [activator, full curve, poor fit]
Nc1cc(C(F)(F)F)cc2c1SCC(=O)N2	inconclusive: 6.51 µM [activator, single point]
O=C(CSc1nnc(-c2ccccn2)o1)Nc1ccc(F)cc1	inconclusive: 16.4 µM [activator, single point]
Cn1cccc1C(=O)OCc1cc(-c2ccco2)on1	inconclusive: 16.4 µM [activator, partial curve]

By substructure: those above containing a thiophene ring, fused or not.
SMILES	Potency
C=CCn1c(=NC(=O)c2sc3ccccc3c2Cl)sc2cc(S(N)(=O)=O)ccc21	inactive
CCc1cc(-c2n[nH]c(=S)n2-c2cccc(C)c2)cs1	inactive

Not a retest: entries from further up.
SMILES	Potency
CCOCCOC(=O)c1[nH]c2c(c1C)C(=O)CC(c1cc(OC)c(OC)c(OC)c1)C2 (centres undefined)	active: 23.1 µM
COc1ccc(-n2cnc3c(c2=N)C(c2cccc(OC)c2)c2c(ccc4ccccc24)O3)cc1 (centres undefined)	inconclusive: 1.3 µM [activator, full curve, poor fit]

The list continues:

SMILES	Potency
CCN(CC)CCNC(=O)C(Cl)=C1C(Cl)=C(Cl)C(Cl)=C1Cl	inconclusive: 20.6 µM [activator, partial curve]
COC(=O)C(=C/C(C)=C/c1cccs1)C(=O)OC	inactive
CCN(CC(=O)NCc1cccs1)S(=O)(=O)c1ccccc1Cl	inactive
COc1cc(/C=C/c2cccc[n+]2C)ccc1OCC(=O)Nc1cccc(Cl)c1	inconclusive: 29.1 µM [falling, single point]
O=C(NNC(=S)Nc1cccc(C(F)(F)F)c1)c1cccc(Cl)c1	inconclusive: 29.1 µM [falling, single point]
Cc1cc(C)cc(NS(=O)(=O)c2ccc(Oc3ncc(C(F)(F)F)cc3Cl)cc2)c1	active: 4.11 µM
C#CC1(O)CCC2C3CCc4cc(O)cc(C)c4C3CCC21C (centres undefined)	inactive
COc1ccc(CCCc2nnc(SCC(=O)Nc3ncc(C)s3)o2)cc1	inactive
COc1ccc(S(=O)(=O)N(CCc2ccccc2)CC(=O)Nc2ccc(C)c(C)c2)cc1OC	inconclusive: 29.1 µM [falling, single point]
CC(=O)c1oc2ccccc2c1N	inactive
OCCNc1nc(Nc2ccccc2Oc2ccccc2)nc(N2CCCC2)n1	inconclusive: 29.1 µM [falling, single point]
O=C(c1ccc(F)cc1)N1c2nc(-c3ccco3)nn2C2(CCCCC2)[C@@H]2CCCC[C@@H]21	inactive
O=C(Cc1cccc2ccccc12)N/N=C/c1ccc(O)c([N+](=O)[O-])c1	inconclusive: 16.4 µM [falling, partial curve, poor fit]
CCOc1ccc(Cl)cc1C1=CC(=O)C[C@H](c2ccc(OC)cc2)C1	inconclusive: 29.1 µM [falling, single point]
Cc1nc(NC(=O)CSc2nc3cccnc3n2Cc2ccccc2)sc1C	inconclusive: 32.6 µM [falling, single point]
COc1ccc(-c2cc3nc(-c4ccc(C)cc4)cc(C(F)(F)F)n3n2)cc1	inconclusive: 14.6 µM [activator, partial curve, poor fit]
CCN(CC)S(=O)(=O)c1ccc(C)c(NC(=S)N2CCN(c3ccccn3)CC2)c1	inconclusive: 25.9 µM [falling, partial curve, poor fit]
O=C(CN1CCN(c2ccc(O)cc2)CC1)Nc1cc([N+](=O)[O-])ccc1Cl	inactive
Cc1ccc(NS(=O)(=O)c2ccc3c(c2)N(C)CCO3)cc1	active: 25.9 µM
CCOc1ccc2[nH]c(=O)c(CN(Cc3ccco3)C(CC)c3nnnn3Cc3ccccc3)cc2c1 (centres undefined)	inconclusive: 18.4 µM [falling, single point]
COc1ccc(CN(Cc2ccccc2)C(=O)c2ccncc2)cc1COc1ccc(NC(C)=O)cc1	inconclusive: 18.4 µM [falling, partial curve, poor fit]
Cc1nc2ccccc2n1S(=O)(=O)c1cc(C(=O)O)ccc1Cl	inactive

— PubChem BioAssay AID504444 (National Center for Advancing Translational Sciences (NCATS), 2011)
